Assay results taken from PubChem BioAssay AID540276 (National Center for Advancing Translational Sciences (NCATS), 2011).
Screen size: about 300,000 compounds; about 5,400 (1.8%) were called active. The inconclusive results got no clear call from the source; some entries with a clear call stand among them for comparison. Calls follow the shape of the full dose curve; tested in HEK293 cells. Potencies of inconclusive entries are doubtful fits and often do not repeat.

Assay: qHTS for inhibitors of binding or entry into cells for Marburg Virus
Conditions: Marburg virus pseudotyped entry inhibition, cell reporter; activity change, negative = inhibition: at 37.8 µM (top of the series) unless noted
% is scaled to controls: 0 for no effect and ±100 for the full control effect; potency is read from the fitted curve at half-maximal effect.

SMILES	Potency	activity change, negative = inhibition
O=C(COC(=O)c1ccc(NS(=O)(=O)c2cccs2)cc1)Nc1nc2c(F)c(F)c(F)cc2s1	inconclusive: 35.5 µM [activator, single point]	–
CCN1C(=O)N(C)C(N(O)C(=O)NC)C1(C)C (configuration not stated)	inconclusive: 11.2 µM [activator, single point]	–
CCN1CCN(c2ccc(S(=O)(=O)N3CCOCC3)cc2NC(=O)c2cc(Cl)nc3ccccc23)CC1	inconclusive: 35.5 µM [inhibitor, single point]	–
Cc1c(NC(=O)c2cnn3c(C(F)(F)F)cc(-c4ccco4)nc23)c(=O)n(-c2ccccc2)n1C	–	inactive: -13.8%
Cc1ccc2c(c1)c(C)c(C)n2CC(O)Cn1nc(C)cc1C (configuration not stated)	–	inactive: -4.98%
COc1ccc(N=C(C)C2=C(O)COC2=O)cc1	–	inactive: 0%
c1ccc2sc(Sc3ncnc4sccc34)nc2c1	inconclusive: 22.4 µM [inhibitor, partial curve, poor fit]	–
COc1ccc(CN2CCN(C3CCC3)CC2CCO)c(C)c1C (configuration not stated)	inconclusive: 4.47 µM [inhibitor, single point]	–
COc1ccc(C(CNC(=O)Cc2ccccc2)N2CCCCC2)cc1 (configuration not stated)	inconclusive: 7.08 µM [inhibitor, full curve, poor fit]	–
COc1ccc(NC(=O)/C(C#N)=C\c2ccc(-c3cccc(C(=O)O)c3C)o2)cc1	–	inactive: -14.2% [at 46.1 µM]
O=C(NC1CCCCC1)C(c1ccc(Cl)cc1)N(C(=O)c1cnccn1)c1ccc2c(c1)OCO2 (configuration not stated)	inactive	–
COc1cccc(CCNC(=O)c2c(O)nc3c(C)cccn3c2=O)c1	inconclusive: 17.8 µM [activator, partial curve, poor fit]	–
O=C(O)/C=C/C(=O)NCc1ccccn1	–	inactive: 31.3% [at 46.1 µM]
CCn1c2ccccc2c2cc(NC(=O)CNC)ccc21	inconclusive: 35.5 µM [inhibitor, single point]	–
Cc1ccc(C(=O)NNC(=O)c2ccc3ccccc3c2)cc1	–	inactive: 1.22%
CCN(CC)CCN1C(=O)C(O)=C(C(=O)c2ccco2)[C@@H]1c1ccccn1	–	inactive: 16.1% [at 46.1 µM]
CCCc1cc(=O)[nH]c(Nc2cc(C)ccc2OC)n1	inconclusive: 22.4 µM [inhibitor, partial curve, poor fit]	–
CC1(C)Cc2c(C#N)c(SCCO)nc(N3CCOCC3)c2CO1	–	inactive: -26%
CCCn1c(NC(=O)CN2C(=O)NC3(CCCC3)C2=O)nc2ccccc21	–	inactive: 10.3%
CCCCn1c(N)c(N(CC(C)C)C(=O)COc2cc(C)ccc2Cl)c(=O)[nH]c1=O	–	inactive: -8.56%
COc1ccccc1C(=O)N(C1=NC(C)CS1)c1ccc(Cl)cc1 (configuration not stated)	–	inactive: -6.31% [at 46.1 µM]
Cc1ccc([C@H]2/C(=C(\O)c3ccc(OC(C)C)cc3)C(=O)C(=O)N2CCN2CCOCC2)cc1	–	inactive: 0%
CCNC(=O)/C(C#N)=C/c1c(N2CCOCC2)nc2ccccn2c1=O	inconclusive: 0.461 µM [inhibitor, full curve, poor fit]	–
CCOC(=O)c1ccc(NC(=O)Nc2ccn(C)n2)cc1	–	inactive: 9.44%

Single records, as listed above. Values in the order: Potency | activity change, negative = inhibition
CC1(C)Cc2c(C#N)c(SCCO)nc(N3CCOCC3)c2CO1 reads – | inactive: -26%
CCn1c2ccccc2c2cc(NC(=O)CNC)ccc21 reads inconclusive: 35.5 µM [inhibitor, single point] | –

Continued.

SMILES	Potency	activity change, negative = inhibition
Fc1ccc(C2N3CCCN23)cc1 (configuration not stated)	inconclusive: 20 µM [activator, single point]	–
Cc1cc(C(=O)N2CCN(c3ccccc3Cl)CC2)c(C)o1	inconclusive: 5.01 µM [activator, single point]	–
Cc1cc(C(=O)CSc2nnnn2-c2ccc(Cl)cc2)c(C)n1CC1CCCO1 (configuration not stated)	inconclusive: 29.1 µM [inhibitor, single point]	–
CC(NC(=O)C1CCN(S(=O)(=O)N2CCC3(CC2)OCCO3)CC1)c1ccccc1 (configuration not stated)	–	inactive: 9.82%
Nc1nc(Cl)nc2ccc(Br)cc12	–	inactive: 10.1%
CC1CCc2nc(NC(=O)Nc3ccc4c(c3)OCO4)sc2C1 (configuration not stated)	inconclusive: 1 µM [activator, partial curve]	–
COc1cc(CC(=O)Nc2cc(S(C)(=O)=O)ccc2Cl)cc(OC)c1OC	inconclusive: 5.62 µM [activator, single point]	–
Cc1ccc(S(=O)(=O)N(CC(=O)Nc2cccnc2)c2cccc([N+](=O)[O-])c2)cc1	inconclusive: 20 µM [inhibitor, single point]	–
Cc1ccc(-c2nnc(Nc3ccc(C(N)=O)cc3)c3ccccc23)cc1S(=O)(=O)NCC1CCCO1 (configuration not stated)	–	inactive: -4.48%
Cc1cc2nc(-c3ccc[nH]c3=O)n(Cc3ccccc3F)c2cc1C	–	inconclusive: 11.4% [activator]
CC(C)N1CC(O)=C(c2nc3ccccc3[nH]2)C1=N	inconclusive: 6.51 µM [activator, single point]	–
O=C(Nc1ccncc1)Nc1ccc(Br)cc1Cl	inconclusive: 35.5 µM [inhibitor, single point]	–
Cc1c(C#N)c(O)[nH]c(=O)c1N=Nc1ccc(S(N)(=O)=O)cc1	–	inactive: 3.51% [at 46.1 µM]
OCC1(Cc2ccccc2C(F)(F)F)CCN(Cc2cccc3cnccc23)CC1	inconclusive: 17.8 µM [inhibitor, single point]	–
Brc1ccc(/C=N/n2cnnc2)s1	inconclusive: 5.01 µM [activator, partial curve, poor fit]	–
Nc1c(-c2ccccc2Cl)cnn1-c1cccc([N+](=O)[O-])c1	–	inactive: 4.36%
CCCCc1ccc(NC(=S)Nc2ccc(Cl)c(S(=O)(=O)N(C)C)c2)cc1	inconclusive: 0.562 µM [inhibitor, full curve, poor fit]	–
Cc1nnc(SCC(=O)Nc2ccccc2N2CCOCC2)s1	inconclusive: 23.1 µM [inhibitor, partial curve, poor fit]	–
COc1ccc(-n2nc(C(=O)NCC(=O)NC3CCCCC3)c3ccccc3c2=O)c(OC)c1	inconclusive: 20 µM [inhibitor, partial curve, poor fit]	–
CC(C)(C)C(=O)Oc1cccc(Nc2ncnc3ccccc23)c1	inconclusive: 35.5 µM [inhibitor, single point]	–
CC1(c2ccc3ccccc3c2)NC(=O)N(CC(=O)N2CCN(Cc3ccc(C#N)cc3)CC2)C1=O (configuration not stated)	active: 0.562 µM	–
Oc1ccc(C=NNc2ccccn2)c(O)c1	inconclusive: 5.62 µM [inhibitor, full curve, poor fit]	–
O=S(=O)(NCc1ccccc1)c1cccc2nsnc12	–	inactive: 16% [at 46.1 µM]
